In paper PMC13229380:

B1: protein phosphatase-6 catalytic domain (PP6C) (enzyme, UniProt Q9CQR6 1-305)
chain: MAPLDLDKYVEIARQCKYLPENDLKRLCDYVCDLLLEESNVQPVSTPVTVCGDIHGQFYDLCELFRTGGQVPDTNYIFMGDFVDRGYYSLETFTYLLALKAKWPDRITLLRGNHESRQITQVYGFYDECQTKYGNANAWRYCTKVFDMLTVAALIDEQILCVHGGLSPDIKTLDQIRTIERNQEIPHKGAFCDLVWSDPEDVDTWAISPRGAGWLFGAKVTNEFVHINNLKLICRAHQLVHEGYKFMFDEKLVTVWSAPNYCYRCGNIASIMVFKDVNTREPKLFRAVPDSERVIPPRTTTPYFL
B2: PP6R3 (protein, UniProt Q922D4 1-844)
chain: MFWKFDLHSSSHIDTLLEREDVTLKELMDEEDVLQECKAQNRKLIEFLLKAECLEDLVSFIIEEPPQDMDEKIRYKYPNISCELLTSDVSQMNDRLGEDESLLMKLYSFLLNESPLNPLLASFFSKVLSILISRKPEQIVDFLKKKRDFVDLIIKHIGTSAIMDLLLRLLTCIEPPQPRQDVLNWLNEERIIQRLVEIVHPSQEEDRHSNASQSLCEIVRLSRDQMLQVQNSTEPDPLLATLEKQEIIEQLLSNIFHKEKNESAIVSAIQILLTLLETRRPTFEGHIEICPPGMSHSACSVNKSVLEAIRGRLGSFHELLLEPPKKSVMKTTWGILDPPVGNTRLNVIRLISSLLQTNTSSINGDLMELNSIGVILDMFFKYTWNNFLHTQVEICIALILASPFENAENGTITDQDSTGDNLLLKHLFQKCQLIERILEAWDTNEKKQAEGGRRHGYMGHLTRIANCIVHSTDKGPNSALVQQLIKDLPDEVRERWETFCTNSLGETNKRNTVDLAFSDYQMQQMTSNFIDQFGFNDEKFADQDDIGNVSFDRVSDINFTLNTNESGNIALFEACCKERIQQFDDGGSDEEDIWEEKHIAFTPESQRRSSSGSTDSEESTDSEEEDGAKQDLFESSSANTEDKMEVDLNEPPTWSANFDVPMETTHGAPLDSVGSDVWSTEEPMPTKETGWASFSEFTSSLSTKESLRSNSPVEMETSTESVDPLTPGAAALATQPEAPGSMAMEASSDGEEDAESTDKVTETVMNGGMKETLSLTVDAKTETAVFKSEEEKLSTSQDAACKDAEETPEPAEAKCTAPLTPSSSPEQRTDQPSMPSDPSVNGPV

Biological target: m54.5p, C-terminally V5-tagged (m54.5p-V5) (murine cytomegalovirus (MCMV))
Experiment: co-IP; V5 Co-IP (V5-Trap magnetic agarose beads) from lysates of m54.5p-V5-3T3 cells, with m54.5p-FLAG-3T3 cells as control; MCMV-infected or uninfected; immunoblot for endogenous partners

Binder	binding
B1	binds
B2	binds

Results are given in words; binding and its absence hold for the method and conditions named. In cells and extracts the contact can be indirect. Binding calls can cover weak binding; strength is not graded here.
